According to article PMC10095469:
No constants are given. Whether binding was seen depends on the method and setting. In cells and extracts the contact can be indirect. Some results given as binding are weak or reduced against the parent protein; the word gives no strength. For some assays here: Where a sequence is shown, tags or fusion partners need not be part of it.

Amino acid sequences for entries named in this document (tags omitted).
UniProt P10415: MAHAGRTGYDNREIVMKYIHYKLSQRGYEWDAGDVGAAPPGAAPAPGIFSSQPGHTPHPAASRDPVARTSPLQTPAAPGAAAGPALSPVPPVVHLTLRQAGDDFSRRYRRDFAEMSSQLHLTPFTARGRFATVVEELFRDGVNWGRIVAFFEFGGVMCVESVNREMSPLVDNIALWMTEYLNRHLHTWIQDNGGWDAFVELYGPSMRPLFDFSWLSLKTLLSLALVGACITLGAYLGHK
UniProt Q14457: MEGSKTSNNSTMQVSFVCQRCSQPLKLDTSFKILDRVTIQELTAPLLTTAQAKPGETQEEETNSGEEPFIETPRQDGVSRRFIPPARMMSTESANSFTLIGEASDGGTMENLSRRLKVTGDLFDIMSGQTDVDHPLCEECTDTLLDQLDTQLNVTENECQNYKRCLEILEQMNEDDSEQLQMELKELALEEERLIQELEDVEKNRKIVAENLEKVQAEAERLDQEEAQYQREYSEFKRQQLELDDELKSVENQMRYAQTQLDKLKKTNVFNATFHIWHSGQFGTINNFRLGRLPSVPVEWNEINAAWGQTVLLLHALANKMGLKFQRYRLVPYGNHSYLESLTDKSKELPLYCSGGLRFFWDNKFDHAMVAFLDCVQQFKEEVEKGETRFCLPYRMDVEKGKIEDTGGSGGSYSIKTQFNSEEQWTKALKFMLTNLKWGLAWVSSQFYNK
UniProt Q9UBN7: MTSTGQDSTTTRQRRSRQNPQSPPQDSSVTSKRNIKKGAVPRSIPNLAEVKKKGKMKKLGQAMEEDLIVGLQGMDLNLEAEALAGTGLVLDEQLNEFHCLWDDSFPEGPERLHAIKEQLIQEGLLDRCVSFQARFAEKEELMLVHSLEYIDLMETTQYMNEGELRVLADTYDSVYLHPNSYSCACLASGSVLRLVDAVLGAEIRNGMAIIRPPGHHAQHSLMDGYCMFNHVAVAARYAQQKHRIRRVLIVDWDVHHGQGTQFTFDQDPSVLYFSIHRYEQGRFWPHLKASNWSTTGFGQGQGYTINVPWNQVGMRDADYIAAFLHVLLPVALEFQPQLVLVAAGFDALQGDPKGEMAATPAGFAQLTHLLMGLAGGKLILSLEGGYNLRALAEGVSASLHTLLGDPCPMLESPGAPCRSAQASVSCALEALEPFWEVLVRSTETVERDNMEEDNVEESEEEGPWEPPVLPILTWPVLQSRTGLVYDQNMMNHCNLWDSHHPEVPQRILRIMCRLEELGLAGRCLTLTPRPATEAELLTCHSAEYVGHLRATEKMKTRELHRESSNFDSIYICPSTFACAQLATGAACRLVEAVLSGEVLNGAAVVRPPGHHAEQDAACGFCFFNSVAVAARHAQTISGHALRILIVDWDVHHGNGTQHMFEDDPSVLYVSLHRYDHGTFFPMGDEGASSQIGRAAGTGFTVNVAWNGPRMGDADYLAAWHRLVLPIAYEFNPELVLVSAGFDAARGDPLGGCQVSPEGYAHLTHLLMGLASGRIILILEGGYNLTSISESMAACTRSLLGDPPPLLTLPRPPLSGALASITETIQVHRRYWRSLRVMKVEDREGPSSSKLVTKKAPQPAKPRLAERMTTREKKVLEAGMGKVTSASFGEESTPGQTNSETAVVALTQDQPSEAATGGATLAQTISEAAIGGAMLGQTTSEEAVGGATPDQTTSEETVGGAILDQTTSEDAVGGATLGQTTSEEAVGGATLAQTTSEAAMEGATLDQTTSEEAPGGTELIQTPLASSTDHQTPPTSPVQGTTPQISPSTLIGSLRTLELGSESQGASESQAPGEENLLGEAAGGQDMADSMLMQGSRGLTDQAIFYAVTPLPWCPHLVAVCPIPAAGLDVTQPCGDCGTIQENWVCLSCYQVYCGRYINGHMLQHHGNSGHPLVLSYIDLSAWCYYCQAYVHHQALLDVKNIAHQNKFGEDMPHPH

What was measured:
HA-Bcl-2 = HA-Bcl-2 (UniProt P10415); test: co-IP; lysates of HCT116 cells transfected with HA-Bcl-2 or HA-Bcl-xL, treated with or without compound 6d (5 uM, 8 h in Figure 3A); IP with anti-HA antibody and protein A + G agarose at 4 °C, WB
[1] = target: T1, caspase 3-Flag (Flag-tagged at the C-terminal of caspase 3) (UniProt P42574); test: co-IP; HCT116 cells transfected with HDAC6-HA and caspase 3-Flag, treated with or without compound 6d; IP with anti-HA or anti-Flag, WB with anti-Flag or anti-HA
T1 sequence: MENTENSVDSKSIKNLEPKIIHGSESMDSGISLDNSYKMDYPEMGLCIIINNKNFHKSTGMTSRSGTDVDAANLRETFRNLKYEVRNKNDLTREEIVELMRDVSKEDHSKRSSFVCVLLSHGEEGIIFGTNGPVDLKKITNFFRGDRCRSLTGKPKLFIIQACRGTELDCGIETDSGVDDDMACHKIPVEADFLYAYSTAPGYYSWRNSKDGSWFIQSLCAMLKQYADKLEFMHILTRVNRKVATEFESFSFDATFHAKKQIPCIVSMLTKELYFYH

| binding (HA-Bcl-2) | binding [1] | Substance |
| --- | --- | --- |
| binds | – | Beclin 1, endogenous (from UniProt Q14457 1-450) |
| – | binds | HDAC6-HA (HA-tagged at the C-terminal of HDAC6) (from UniProt Q9UBN7 1-1215) (enzyme) |
